Inconclusive means that the source gave no clear call. Such entries were picked first, then a sample of the others. A call without a number means that no potency is given here. A potency beside an inconclusive call is a rough fit, not a confirmed value. Activity calls are given as the source filed them. The call rests on the fitted dose curve; in most records, active means well fitted inhibition curve with a large enough effect; inconclusive means small, poorly fitted or top-dose-only effect; inactive means no such curve, though single readings can be large or run the other way.
The compounds below were run against Aldehyde dehydrogenase 1A1 (Homo sapiens) (UniProt P00352) (assay: qHTS for Inhibitors of the Aldehyde Dehydrogenase Family (ALDH1A1) Confirmatory screens (AID 2061316; further: nearly all actives have a fitted effect of over 65% in size)). Conditions: ALDH inhibition qHTS; series mostly up to 47.3 µM.
`CC(=O)c1c(C)n(-c2ccc(C)cc2)c2ccc(OC(=O)COc3ccccc3)cc12` was tested, and the Potency was “inactive”. In the case of `COc1ccc(-n2c(C)c(C(C)=O)c3cc(OC(=O)COc4ccccc4)ccc32)cc1`, the Potency was “inactive”. With `Cc1c(C(=O)N(C)CC2CCCO2)[nH]c2c1C(=O)CC(c1ccco1)C2` (stereo unspecified) the Potency was inconclusive: 8.96 µM [inhibitor, partial curve]. `Cc1cccc(S(=O)(=O)NC2CCN(C#N)C2)c1` (stereo unspecified) was tested, and the Potency was active: 11.3 µM. For `CC(C)(C)Nc1nc(C#N)nc(Nc2ccccc2)n1`, the Potency was “inactive”. In the case of `COc1ccc(C2=Nn3c(nnc3-c3cccc(OC)c3OC)SC2)cc1`, the Potency was “inactive”. In the case of `CN1CCN(c2nn3c(=O)c4ccccc4nc3s2)CC1`, the Potency was inconclusive: 22.5 µM [inhibitor, partial curve]. With `Cc1ccc(CNc2ccc(N3CCNCC3=O)cc2)cc1` the Potency was inconclusive: 11.3 µM [inhibitor, partial curve]. With `Oc1ccc(Nc2nc(-c3ccc(Cl)cc3)cs2)cc1` the Potency was inconclusive: 17.9 µM [inhibitor, partial curve]. For `CC(=O)N1CCN(c2ccc(NCc3ccc(C)cc3)cc2)CC1`, the Potency was inconclusive: 11.3 µM [inhibitor, partial curve]. With `CC1(C)S[C@@H]2[C@H](NC(=O)[C@H](NC(=O)N3CCN(S(C)(=O)=O)C3=O)c3ccccc3)C(=O)N2[C@H]1C(=O)O` the Potency was “inactive”. In the case of `CC1CCN(c2ccc(CNC(=O)CC3CCOCC3)cc2)CC1`, the Potency was inconclusive: 18.2 µM [inhibitor, partial curve]. For `Oc1cccc2cc(C3CC3)cnc12`, the Potency was inconclusive: 20.1 µM [inhibitor, partial curve]. In the case of `O=C(Nc1cccc(-c2ccc(N3CCOCC3)nn2)c1)Nc1cccc(C(F)(F)F)c1`, the Potency was “inactive”. In the case of `CCOC(=O)c1ccc(O)c2ncc(N3CCC(C(=N)N)CC3)cc12`, the Potency was “inactive”. With `CC(=O)Nc1sc2c(c1-c1ccc(C(F)(F)F)cc1)CCNC2` the Potency was “inactive”. In the case of `Cc1ccccc1C#Cc1ccc(CCC(=O)O)cc1`, the Potency was “inactive”. For `NC(=O)C1CCN(c2ncc(-c3cccc(N4CCOCC4)c3)s2)CC1`, the Potency was active: 6.34 µM. With `OCc1cccc(-c2noc(-c3ccccc3F)n2)c1` the Potency was “inactive”. In the case of `Cc1ccc(-c2no[n+]([O-])c2C#N)cc1`, the Potency was inconclusive: 25.2 µM [inhibitor, partial curve, poor fit]. For `NC(=O)C1CCN(c2nc(-c3ccc(Cl)cc3)cs2)CC1`, the Potency was “inactive”. For `CCCCC1CCN(CCCN2C(=O)CCc3ccccc32)CC1`, the Potency was “inactive”. For `COc1cc2c3c(cc4ccccc4c3c1O)NC2=O`, the Potency was inconclusive: 12.7 µM [inhibitor, partial curve]. In the case of `O=C(Cc1ccc(Cl)c(Cl)c1)Nc1ccc(S(=O)(=O)Nc2cccc(C(=O)O)c2)cc1`, the Potency was “inactive”. For `CCNC(=O)OC1CCN(c2nncc3cc(OC)c(OC)cc23)CC1`, the Potency was “inactive”. With `Cc1cc(C)nc(NC(=S)N2CCN(c3cncc4ccccc34)CC2)c1` the Potency was active: 5.65 µM.
Potency means the concentration at half of the fitted maximal effect.
